The reference is the same well before dosing, and untreated signal decays as well.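 The tumor cells are basal-like or mesenchymal-like triple-negative breast cancer lines cultured without fibroblasts. Reduced red signal indicates lost mitochondrial integrity, serving as a proxy for apoptotic death.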
Key:
Hs578T = experiment: relative JC-1 red fluorescence (viability) vs pre-drug, monoculture (fraction); higher = more viable cancer cells; settings: coculture fibroblast: none (monoculture)
Procedure: (§1)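 JC-1 labelled TNBC cells grown in monoculture (density kept equal with unlabelled cancer cells) in 384-well plates in FluoroBrite medium, treated with one of 42 anticancer drugs at 0.1, 1, 10 or 100 uM. JC-1 red fluorescence (mitochondrial integrity, surrogate of apoptotic death) was read by plate reader every 8 h for 72 h. Values are normalised to each well's pre-drug value, with background from alamethicin. The stock of one drug was tenfold lower, so its dose labels may be too high. Monoculture values are repeated alongside each fibroblast plate and are averaged here.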

HCC1143 = experiment: as above; settings: coculture fibroblast: none (monoculture)
Procedure: as §1

O=c1[nH]cc(F)c(=O)[nH]1 [Fluorouracil]
relative JC-1 red fluorescence
Settings | 8 h | 16 h | 24 h | 32 h | 40 h | 48 h | 56 h | 64 h | 72 h
HCC1143, 0.1 µM | 0.8873 | 0.8019 | 0.7186 | 0.6639 | 0.603 | 0.559 | 0.527 | 0.502 | 0.478
HCC1143, 1 µM | 0.872 | 0.782 | 0.711 | 0.644 | 0.595 | 0.55 | 0.505 | 0.479 | 0.456
HCC1143, 10 µM | 0.896 | 0.827 | 0.771 | 0.728 | 0.686 | 0.661 | 0.642 | 0.63 | 0.619
HCC1143, 100 µM | 0.883 | 0.784 | 0.752 | 0.716 | 0.693 | 0.672 | 0.648 | 0.644 | 0.633
Hs578T, 0.1 µM | 0.839 | 0.755 | 0.617 | 0.57 | 0.4951 | 0.451 | 0.413 | 0.398 | 0.376
Hs578T, 1 µM | 0.865 | 0.7856 | 0.737 | 0.67 | 0.638 | 0.627 | 0.604 | 0.599 | 0.591
Hs578T, 10 µM | 0.854 | 0.755 | 0.681 | 0.629 | 0.575 | 0.557 | 0.531 | 0.524 | 0.514
Hs578T, 100 µM | 0.8507 | 0.7296 | 0.717 | 0.6427 | 0.607 | 0.589 | 0.564 | 0.561 | 0.549

CS(=O)(=O)CCNCc1ccc(-c2ccc3ncnc(Nc4ccc(OCc5cccc(F)c5)c(Cl)c4)c3c2)o1 [Lapatinib]
relative JC-1 red fluorescence
Settings | 8 h | 16 h | 24 h | 32 h | 40 h | 48 h | 56 h | 64 h | 72 h
HCC1143, 0.1 µM | 0.884 | 0.803 | 0.726 | 0.66 | 0.6 | 0.547 | 0.509 | 0.486 | 0.469
HCC1143, 1 µM | 0.886 | 0.8 | 0.75 | 0.69 | 0.645 | 0.607 | 0.583 | 0.569 | 0.549
HCC1143, 10 µM | 0.951 | 0.87 | 0.791 | 0.755 | 0.751 | 0.758 | 0.734 | 0.72 | 0.721
HCC1143, 100 µM | 0.88 | 0.78 | 0.708 | 0.643 | 0.599 | 0.557 | 0.529 | 0.509 | 0.494
Hs578T, 0.1 µM | 0.8424 | 0.771 | 0.6915 | 0.6494 | 0.604 | 0.573 | 0.5503 | 0.55307 | 0.542
Hs578T, 1 µM | 0.882 | 0.757 | 0.718 | 0.671 | 0.625 | 0.5995 | 0.5692 | 0.552 | 0.539
Hs578T, 10 µM | 0.873 | 0.794 | 0.715 | 0.724 | 0.708 | 0.693 | 0.684 | 0.678 | 0.66
Hs578T, 100 µM | 0.883 | 0.798 | 0.773 | 0.739 | 0.687 | 0.665 | 0.624 | 0.605 | 0.587

N#Cc1ccc(C(c2ccc(C#N)cc2)n2cncn2)cc1 [Letrozole]
relative JC-1 red fluorescence
Settings | 8 h | 16 h | 24 h | 32 h | 40 h | 48 h | 56 h | 64 h | 72 h
HCC1143, 0.1 µM | 0.884 | 0.764 | 0.6839 | 0.627 | 0.571 | 0.531 | 0.501 | 0.484 | 0.471
HCC1143, 1 µM | 0.8769 | 0.7819 | 0.7241 | 0.6906 | 0.653 | 0.6305 | 0.6147 | 0.604 | 0.5963
HCC1143, 10 µM | 0.8849 | 0.795 | 0.73 | 0.6791 | 0.631 | 0.596 | 0.569 | 0.546 | 0.525
HCC1143, 100 µM | 0.89808 | 0.8246 | 0.767 | 0.711 | 0.678 | 0.647 | 0.617 | 0.596 | 0.583
Hs578T, 0.1 µM | 0.876 | 0.779 | 0.687 | 0.622 | 0.589 | 0.571 | 0.548 | 0.549 | 0.555
Hs578T, 1 µM | 0.861 | 0.761 | 0.74 | 0.672 | 0.627 | 0.616 | 0.59 | 0.597 | 0.598
Hs578T, 10 µM | 0.901 | 0.765 | 0.749 | 0.668 | 0.627 | 0.613 | 0.595 | 0.593 | 0.587
Hs578T, 100 µM | 0.893 | 0.81 | 0.755 | 0.704 | 0.654 | 0.625 | 0.604 | 0.599 | 0.583

CC(=O)O[C@H]1C(=O)[C@@]2(C)[C@H]([C@H](OC(=O)c3ccccc3)[C@]3(O)C[C@H](OC(=O)[C@H](O)[C@@H](NC(=O)c4ccccc4)c4ccccc4)C(C)=C1C3(C)C)[C@]1(OC(C)=O)CO[C@@H]1C[C@@H]2O [Paclitaxel]
relative JC-1 red fluorescence
Settings | 8 h | 16 h | 24 h | 32 h | 40 h | 48 h | 56 h | 64 h | 72 h
HCC1143, 0.1 µM | 0.911 | 0.807 | 0.7367 | 0.6521 | 0.602 | 0.581 | 0.567 | 0.56 | 0.5517
HCC1143, 1 µM | 0.893 | 0.79 | 0.698 | 0.625 | 0.5361 | 0.4904 | 0.455 | 0.434 | 0.432
HCC1143, 10 µM | 0.916 | 0.824 | 0.739 | 0.658 | 0.612 | 0.581 | 0.556 | 0.538 | 0.532
Hs578T, 0.1 µM | 0.8638 | 0.724 | 0.679 | 0.597 | 0.565 | 0.558 | 0.53 | 0.539 | 0.543
Hs578T, 1 µM | 0.8543 | 0.71 | 0.617 | 0.5158 | 0.4515 | 0.415 | 0.38 | 0.378 | 0.372
Hs578T, 10 µM | 0.9 | 0.756 | 0.696 | 0.659 | 0.623 | 0.603 | 0.574 | 0.566 | 0.554

From the supplement of paper PMC6078165
